Measured values taken from publication PMC12474915 (Nature Communications, 2025).

Biological target: T1, MET1MTase (Arabidopsis thaliana) (UniProt P34881)
T1 sequence (looked up): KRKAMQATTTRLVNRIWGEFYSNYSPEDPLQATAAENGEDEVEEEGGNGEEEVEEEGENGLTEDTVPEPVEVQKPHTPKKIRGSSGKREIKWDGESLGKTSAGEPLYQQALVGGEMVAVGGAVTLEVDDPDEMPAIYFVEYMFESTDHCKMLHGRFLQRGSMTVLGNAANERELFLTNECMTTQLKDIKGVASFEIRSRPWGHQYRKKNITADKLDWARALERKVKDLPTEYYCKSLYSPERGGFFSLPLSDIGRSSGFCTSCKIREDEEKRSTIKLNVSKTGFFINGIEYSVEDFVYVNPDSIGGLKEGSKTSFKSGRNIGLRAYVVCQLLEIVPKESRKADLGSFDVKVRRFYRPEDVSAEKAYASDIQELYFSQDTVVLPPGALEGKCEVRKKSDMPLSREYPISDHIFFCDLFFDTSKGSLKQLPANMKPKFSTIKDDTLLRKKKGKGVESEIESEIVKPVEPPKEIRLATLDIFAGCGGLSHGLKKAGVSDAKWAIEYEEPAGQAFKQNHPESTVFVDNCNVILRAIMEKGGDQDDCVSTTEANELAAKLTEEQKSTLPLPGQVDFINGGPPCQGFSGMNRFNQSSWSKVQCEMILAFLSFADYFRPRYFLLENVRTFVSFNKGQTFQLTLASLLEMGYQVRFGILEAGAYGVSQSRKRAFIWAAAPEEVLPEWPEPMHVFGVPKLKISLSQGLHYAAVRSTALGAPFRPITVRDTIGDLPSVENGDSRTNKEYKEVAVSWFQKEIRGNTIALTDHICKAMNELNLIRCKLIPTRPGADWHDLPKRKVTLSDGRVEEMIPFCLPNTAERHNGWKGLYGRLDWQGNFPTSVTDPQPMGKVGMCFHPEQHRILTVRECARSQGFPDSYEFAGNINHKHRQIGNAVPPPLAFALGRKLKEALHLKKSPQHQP
Assay: cryo-EM structure (2.74 A), covalent complex purified by SEC
Conditions: SAH in the structure, irreversible covalent complex with 5fC, upper strand: 5-methylcytosine at C6, lower strand: 5-fluorocytosine at C6 as printed, recombinant protein, residues 621-1534, protein details: GST tag cleaved (HRV3C, pGEX-6P-1)

**Q.** Does “ACTTACGGAAGG (double strand) [12 bp hemimethylated DNA (5mCG/5fCG)]” bind?
**A.** binds

Tags and fusion partners may be left off the protein sequences shown.
